Holding throughout (assay): co-IP; HEK-293 cells co-transfected with Flag- and HA-tagged THAP constructs; whole-cell lysates, anti-HA immunoprecipitation, immunoblot with anti-HA and anti-Flag
On the technique in general: In western blotting, separated proteins are transferred to a membrane and probed.

In test [1] the target is THAP11 (Flag- or HA-epitope-tagged) (human) (UniProt Q96EK4).
Test [2] addresses THAP7 (Flag- or HA-epitope-tagged) (human) (UniProt Q9BT49).
Test [3] has as its target T1, THAP11 (Flag- or HA-epitope-tagged) (human), Q96EK4.
T1 chain: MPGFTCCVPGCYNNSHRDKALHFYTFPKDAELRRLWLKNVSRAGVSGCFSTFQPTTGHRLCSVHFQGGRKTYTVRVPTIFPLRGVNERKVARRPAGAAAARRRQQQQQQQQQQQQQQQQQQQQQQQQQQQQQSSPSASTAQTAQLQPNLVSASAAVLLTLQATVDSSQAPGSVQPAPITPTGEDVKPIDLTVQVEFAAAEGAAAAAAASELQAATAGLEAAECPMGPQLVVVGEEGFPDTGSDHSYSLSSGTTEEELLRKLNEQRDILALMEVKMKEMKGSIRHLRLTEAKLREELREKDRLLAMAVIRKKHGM
The conditions noted are these: remark: other sources report otherwise.

Results are given in words; binding and its absence hold for the method and conditions named. Binding seen in cells or lysates may run through a third protein. Some binding calls cover weakened binding; strength is not graded here. For part of these data: Tags and fused reporters may be left off the sequences shown.

As to “THAP11 (Flag- or HA-epitope-tagged) (from UniProt Q96EK4 1-314)”, the binding entry in test [1] is reported as “binds”.

B1: THAP7 (Flag- or HA-epitope-tagged) (protein, UniProt Q9BT49 1-309)
chain: MPRHCSAAGCCTRDTRETRNRGISFHRLPKKDNPRRGLWLANCQRLDPSGQGLWDPASEYIYFCSKHFEEDCFELVGISGYHRLKEGAVPTIFESFSKLRRTTKTKGHSYPPGPAEVSRLRRCRKRCSEGRGPTTPFSPPPPADVTCFPVEEASAPATLPASPAGRLEPGLSSPFSDLLGPLGAQADEAGCSAQPSPERQPSPLEPRPVSPSAYMLRLPPPAGAYIQNEHSYQVGSALLWKRRAEAALDALDKAQRQLQACKRREQRLRLRLTKLQQERAREKRAQADARQTLKEHVQDFAMQLSSSMA
With B1, in test [2], the binding result is given as “binds”.

B2: THAP7 (Flag- or HA-epitope-tagged), Q9BT49 1-309 (protein)
chain: B1 chain
Take B2: the binding entry in test [3] is “no binding”.

These data come from publication PMC6944463.
